Laboratory results as given in PubChem BioAssay AID504467 (National Center for Advancing Translational Sciences (NCATS), 2011).
In all, about 330,000 compounds went through this assay and about 7,700 (2.3%) were called active. This list was built around the results that the source calls inconclusive (neither active nor inactive); the mix of calls is not that of the screen. Calls follow the shape of the dose curve; as a rule, active = well fitted inhibition curve with a large enough effect; inconclusive = small, poorly fitted or top-dose-only effect, or effect the other way; inactive = flat fitted curve, though single readings scatter. A potency beside an inconclusive call is a rough fit, not a confirmed value.

Test: qHTS screen for small molecules that inhibit ELG1-dependent DNA repair in human embryonic kidney (HEK293T) cells expressing luciferase-tagged ELG1; also: nearly all actives have a fitted effect of over 55% in size
Conditions: HEK293T ELG1-luciferase reporter, luminescence, 16 h, DNA damage induced by 5-fluorouridine; activity change, negative = inhibition: at 46.1 µM (top of the series)
Outline: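 Step one: seed 2,000 cells per well. Step two: pin-transfer compound or DMSO alongside 5-fluorouridine. Step three: incubate 16 hr, 37 °C, 5% CO2. Step four: add ONE-Glo, wait 30 min, read luminescence.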
% is scaled to controls: 0 for no effect and ±100 for the full control effect; potency is read from the fitted curve at half-maximal effect.

Row | Structure (SMILES) | Potency | activity change, negative = inhibition
1 | COc1ccc(S(=O)(=O)N(C(=O)c2ccncc2)c2ccc3oc4c(c3c2)CCCC4)cc1 | inconclusive: 20.6 µM [inhibitor, partial curve, poor fit] | 
2 | COc1ccc(C(CNC(=O)C2CC(=O)N(Cc3ccccc3)C2)N2CCOCC2)cc1 (configuration not stated) |  | inactive: 14.7%
3 | O=C(CCCc1ccccc1)Nc1cccc([N+](=O)[O-])c1 | inconclusive: 14.6 µM [activator, partial curve] | 
4 | CCOC(=O)C1CCN(c2nc(-c3ccc(Br)cc3)nc3ccccc23)CC1 | inconclusive: 29.1 µM [inhibitor, single point] | 
5 | COc1ccc(Nc2nc(N)nc(COc3ccc(OC)cc3)n2)cc1 | inconclusive: 23.1 µM [activator, partial curve, poor fit] | 
6 | Fc1ccc(-c2nnc3ccc(N4CCc5ccccc5C4)nn23)cc1 | active: 18.4 µM | 
7 | C=CCN(CC=C)C(=O)c1ccc(OC2CCN(Cc3ccccn3)CC2)cc1 |  | inactive: 2.59%
8 | CCOC(=O)C(=Cc1ccc(OCc2ccc([N+](=O)[O-])cc2)c(OC)c1)C(=O)OCC | active: 18.4 µM | 
9 | Cc1nc(-c2cc(C#N)c(Sc3cccc(C(F)(F)F)c3)nc2C)cs1 | inconclusive: 20.6 µM [inhibitor, single point] | 
10 | O=C(Nc1cc2c3c(c1)CC(=O)N3CCC2)c1ccc(Br)o1 | inconclusive: 9.2 µM [activator, partial curve] | 
11 | O=CC(=O)c1ccccc1 | inconclusive: 32.6 µM [activator, partial curve, poor fit] | 
12 | O=C(/C=C/c1ccc(S(=O)(=O)N2CCOCC2)cc1)N1CCN(c2ccccc2)CC1 | inconclusive: 9.2 µM [inhibitor, partial curve] | 
13 | COc1cc2c3nc4n(c(=O)c3n(CC(=O)NCC3CCCO3)c2cc1OC)CCS4 (configuration not stated) |  | inactive: -2.08%
14 | CC(=O)c1ccc(S(=O)(=O)NCCC(=O)NCCc2c[nH]c3ccccc23)cc1 |  | inactive: -1.49%
15 | Cc1ccc(C(=O)Nc2cccc(C(F)(F)F)c2)cc1NC(=O)c1c[nH]c2cc(C(F)(F)F)ccc2c1=O | inconclusive: 23.1 µM [activator, partial curve, poor fit] | 
16 | CC(C)/C(=N/Nc1ccccc1[N+](=O)[O-])c1ccccc1 | inconclusive: 18.3 µM [activator, single point] | 
17 | Cc1ccc(C)c(NC(=O)C2CCCN(c3cnccn3)C2)c1 (configuration not stated) |  | inactive: 14.9%
18 | CCc1ccccc1S(=O)(=O)Cc1ccc(C(=O)NCc2cccs2)o1 | inconclusive: 20.6 µM [inhibitor, single point] | 
19 | Cc1cccc(C)c1NC(=O)CNC(=O)c1ccc(N2CCCC2)c([N+](=O)[O-])c1 | inconclusive: 16.4 µM [activator, partial curve, poor fit] | 
20 | O=C(/C=C/c1ccc2c(c1)S(=O)(=O)N(Cc1ccccc1)[C@H]2CC(=O)N1CCOCC1)N1CCOCC1 |  | inactive: 13.8%
21 | COc1ccc2nc(N3CCCC3)[nH]c2c1 | inconclusive: 18.4 µM [activator, partial curve, poor fit] | 
22 | COc1ccc(Cc2[nH]n3c(=O)c(Cl)c(C)nc3c2-c2ccccc2)cc1 |  | inactive: 16.3%
23 | C=CCn1c(SCC(=O)c2[nH]c(C)c(C(=O)OCC)c2C)nc2scc(-c3ccccc3)c2c1=O |  | inactive: -24.1%
24 | Cc1cc(C)c(N=C2C(=O)Nc3ccccc32)c(C)c1 | inconclusive: 3.66 µM [inhibitor, full curve, poor fit] | 

Row | Structure (SMILES) | Potency | activity change, negative = inhibition
25 | CC(=O)N1CCCN(C(=O)c2ccc3nc(Cc4cccc(Cl)c4)oc3c2)CC1 | inconclusive: 23.1 µM [inhibitor, single point] | 
26 | Cc1ccc2ncccc2c1 |  | inactive: 15.2%
27 | CCC(C)n1cnc2c(c1=O)c1nc3ccccc3nc1n2-c1ccc2c(c1)OCCO2 (configuration not stated) | inconclusive: 18.4 µM [activator, single point] | 
28 | O=C(NCc1ccccc1Cl)c1nnc(CS(=O)(=O)c2ccccc2)o1 | inconclusive: 29.1 µM [activator, partial curve, poor fit] | 
29 | Cc1ccc(S(=O)(=O)N[C@@H](Cc2ccccc2)C(=O)N2CCC(C(=O)N[C@@H](CC(C)C)C(=O)O)CC2)cc1 |  | inactive: 8.54%
30 | O=C(NC(=S)N1CCCc2ccccc21)c1ccccc1 | inconclusive: 18.4 µM [activator, single point] | 
31 | CC1(C)C2CCC1(C)C(OC(=O)CCn1ccnc1)C2 (configuration not stated) | inconclusive: 32.6 µM [activator, partial curve, poor fit] | 
32 | COc1ccc(-c2sc3cc(OC)c(OC)cc3c2C#CCCO)cc1 | inconclusive: 20.6 µM [inhibitor, partial curve, poor fit] | 
33 | COc1ccccc1C(=O)N1CCN(c2cccc(Cl)c2)CC1 |  | inactive: 2.46%
34 | COc1ccccc1CNC(=O)C(=O)Nc1ccc(C(=O)N2CCC(C)CC2)cc1 |  | inactive: -12.9%
35 | Cn1cnc2cc(NCc3ccc(Cl)cc3)ccc21 | inconclusive: 23.1 µM [activator, partial curve, poor fit] | 
36 | O=S(=O)(/C(=C/c1ccc(C(F)(F)F)cc1)c1nc2ccccc2[nH]1)c1ccccc1 | active: 16.4 µM | 
37 | O=C(CSc1nnc(-c2ccco2)n1Cc1ccccc1)OC1CCCCC1 | inconclusive: 11.6 µM [activator, single point] | 
38 | CCc1ccc2[nH]c(=O)c(CN(Cc3nnnn3C3CCCC3)C3CCCCC3)cc2c1 | inconclusive: 18.4 µM [inhibitor, single point] | 
39 | CSCCC(NC(=O)c1ccco1)C(=O)Nc1ccncc1 (configuration not stated) |  | inactive: 10.2%
40 | Cc1ccccc1NC(=O)CCc1c(C)nn(-c2ccc(N3CCCCC3)nn2)c1C | inconclusive: 29.1 µM [inhibitor, single point] | 
41 | Cc1nn(-c2ccc(N3CCCCC3)nn2)c(C)c1CCC(=O)Nc1ccc(F)cc1 |  | inactive: 2.17%
42 | O=C(O)c1cccc(Nc2c([N+](=O)[O-])c(=O)oc3ccccc23)c1 | inconclusive: 20.6 µM [activator, single point] | 
43 | COC(=O)c1c(C)[nH]c(C(=O)CN2C(=O)C3CC=CCC3C2=O)c1C (configuration not stated) | inconclusive: 23.1 µM [activator, partial curve] | 
44 | COc1ccccc1C(=O)COC(=O)C(NC(=O)Cc1ccccc1)C(C)C (configuration not stated) |  | inactive: 8.31%
45 | c1cc(SC2CCCCC2)cc(-c2nc3cnccn3c2NC2CCCCC2)c1 | inconclusive: 32.6 µM [inhibitor, partial curve, poor fit] | 
46 | Cc1ccc(Nc2nc(C)c3c(n2)CC(C)CC3=O)c(C)c1 (configuration not stated) | inconclusive: 29.1 µM [inhibitor, single point] | 
47 | CCN(CC)CC(O)Cn1c(C)c(-c2ccccc2)c2cc([N+](=O)[O-])ccc21 (configuration not stated) |  | inactive: -2.52%
48 | CN1/C(=C\C(=O)CSc2nnc(N)s2)C(C)(C)c2ccccc21 |  | inactive: -11.3%

Shown comma-delimited: 17 of the compounds above.
Row,Structure (SMILES),Potency,"activity change, negative = inhibition"
2,COc1ccc(C(CNC(=O)C2CC(=O)N(Cc3ccccc3)C2)N2CCOCC2)cc1 (configuration not stated),,inactive: 14.7%
5,COc1ccc(Nc2nc(N)nc(COc3ccc(OC)cc3)n2)cc1,"inconclusive: 23.1 µM [activator, partial curve, poor fit]",
6,Fc1ccc(-c2nnc3ccc(N4CCc5ccccc5C4)nn23)cc1,active: 18.4 µM,
17,Cc1ccc(C)c(NC(=O)C2CCCN(c3cnccn3)C2)c1 (configuration not stated),,inactive: 14.9%
21,COc1ccc2nc(N3CCCC3)[nH]c2c1,"inconclusive: 18.4 µM [activator, partial curve, poor fit]",
22,COc1ccc(Cc2[nH]n3c(=O)c(Cl)c(C)nc3c2-c2ccccc2)cc1,,inactive: 16.3%
28,O=C(NCc1ccccc1Cl)c1nnc(CS(=O)(=O)c2ccccc2)o1,"inconclusive: 29.1 µM [activator, partial curve, poor fit]",
31,CC1(C)C2CCC1(C)C(OC(=O)CCn1ccnc1)C2 (configuration not stated),"inconclusive: 32.6 µM [activator, partial curve, poor fit]",
33,COc1ccccc1C(=O)N1CCN(c2cccc(Cl)c2)CC1,,inactive: 2.46%
37,O=C(CSc1nnc(-c2ccco2)n1Cc1ccccc1)OC1CCCCC1,"inconclusive: 11.6 µM [activator, single point]",
39,CSCCC(NC(=O)c1ccco1)C(=O)Nc1ccncc1 (configuration not stated),,inactive: 10.2%
41,Cc1nn(-c2ccc(N3CCCCC3)nn2)c(C)c1CCC(=O)Nc1ccc(F)cc1,,inactive: 2.17%
42,O=C(O)c1cccc(Nc2c([N+](=O)[O-])c(=O)oc3ccccc23)c1,"inconclusive: 20.6 µM [activator, single point]",
44,COc1ccccc1C(=O)COC(=O)C(NC(=O)Cc1ccccc1)C(C)C (configuration not stated),,inactive: 8.31%
45,c1cc(SC2CCCCC2)cc(-c2nc3cnccn3c2NC2CCCCC2)c1,"inconclusive: 32.6 µM [inhibitor, partial curve, poor fit]",
46,Cc1ccc(Nc2nc(C)c3c(n2)CC(C)CC3=O)c(C)c1 (configuration not stated),"inconclusive: 29.1 µM [inhibitor, single point]",
47,CCN(CC)CC(O)Cn1c(C)c(-c2ccccc2)c2cc([N+](=O)[O-])ccc21 (configuration not stated),,inactive: -2.52%

Continuation.

Row | Structure (SMILES) | Potency | activity change, negative = inhibition
49 | O=C(Nc1ccc(F)cc1)c1ccc(Br)c(S(=O)(=O)N2CCOCC2)c1 | active: 14.6 µM | 
50 | O=C(Cc1csc(-c2ccccc2)n1)NCc1ccc(F)cc1 |  | inactive: 5.87%
51 | COc1cc(NC(=O)c2ccccc2F)c(OC)cc1NC(=O)CN1CCOCC1 | inconclusive: 20.6 µM [inhibitor, single point] | 
52 | COc1ccccc1CN1CCC(n2nccc2NC(=O)CCc2ccccc2)CC1 |  | inactive: 7.31%
53 | Cc1ccc(NC(=O)CN(C)C(=O)COc2cccc3ccc(C)nc23)cc1 |  | inactive: -7.81%
54 | CC1(C)Cc2c(c(N3CCOCC3)nc3sc4c(=O)[nH]cnc4c23)CS1 |  | inactive: -6.54%
55 | Cc1ccc(S(=O)(=O)N2CCC(N3CCN(C)CC3)CC2)cc1Cl |  | inactive: 0.784%
56 | C/C(=N\Nc1nc2ccccc2s1)c1ccc2c(c1)OCO2 | inconclusive: 11.6 µM [activator, partial curve] | 
57 | Cc1ccc(C(=O)c2ccccc2C(=O)O)c(O)c1 |  | inactive: 0.142%
58 | COc1ccc(CCN(C)C(=O)c2oc3ccccc3c2C)cc1OC |  | inactive: 0.0247%
59 | COC(=O)c1cc2ccccc2oc1=O |  | inactive: 7.72%
60 | Fc1cccc(F)c1-c1nc(-c2ccncc2)no1 | inconclusive: 18.3 µM [activator, partial curve] | 
61 | Cc1cccn2c(=O)nc(SCC(=O)Nc3ccc4c(c3)OCO4)nc12 | inconclusive: 16.4 µM [activator, partial curve, poor fit] | 
62 | CNc1ccccc1C(=O)OCC(=O)Nc1ccc2c(c1)OCO2 | inconclusive: 25.9 µM [activator, single point] | 
63 | CS(=O)(=O)N1CCN(c2ccc(C(=O)NC34CC5CC(CC(C5)C3)C4)cc2[N+](=O)[O-])CC1 |  | inactive: 19.4%
64 | Cc1c(C(=O)N2CCCC2)c(S(=O)(=O)NCC(C)c2ccccc2)c(C)n1C (configuration not stated) |  | inactive: 21.9%
65 | Cc1cc2cc3c(N)[nH]nc3nc2cc1C | inconclusive: 12.6 µM [activator, partial curve] | 
66 | Oc1csc(Cc2nc(-c3ccc(-c4ccccc4)cc3)cs2)n1 | inconclusive: 0.82 µM [activator, full curve, poor fit] | 
67 | CCNc1nnc(SCC(=O)c2cc(C)n(C3CC3)c2C)s1 | inconclusive: 9.2 µM [activator, partial curve, poor fit] | 
68 | Cc1ccc(CCNC(=O)CCn2c(=O)c3cccn3c3ccc(F)cc32)cc1 |  | inactive: -3.73%
69 | CCOc1ccc(C(=O)NCCN2CCCC2)cc1 | inconclusive: 23.1 µM [activator, partial curve, poor fit] | 
70 | O=C(NCCOCc1ccccc1)C(c1ccccc1)c1ccccc1 |  | inactive: -5.24%
71 | Cc1cccc(NC(=O)CSc2nnc(CCC(=O)Nc3ccc(C)c(Cl)c3)n2C)c1 | inconclusive: 14.6 µM [activator, partial curve, poor fit] | 
72 | O=C(c1ccc(CNS(=O)(=O)c2ccccc2)cc1)N1CCN(Cc2ccccc2)CC1 | inconclusive: 9.2 µM [inhibitor, partial curve] | 
